Taken from: PubChem BioAssay AID1508588 (Peter MacCallum Cancer Centre, 2020)

Purpose: 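Which gene losses make BRAF-mutant melanoma cells more responsive to vemurafenib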 (primary screen)
Cells: human WM266.4 melanoma cells (BRAF V600 mutant)
Reagents: siRNA pool against human genes, 40 nM
Timing: 96 h from transfection to read-out
Treatment: vemurafenib 300 nM (about IC25), added 48 h after transfection, for 48 h; comparison arm got DMSO vehicle only
Read-out: 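Ratios to non-targeting siRNA for cell gain, counted as DAPI nuclei after minus before drug and averaged over two replicates, and for absorbance-read medium lactate per cell; both binned into fold-change classes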
Scale: cell gain with vemurafenib: higher = more cell gain than with non-targeting siRNA; lactate per cell with vemurafenib: higher = more lactate made per cell
Hit rule: 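Enhancement is called by pairing each knock-down's vehicle-arm and drug-arm fold-change classes for viability or glycolysis; which class combinations qualify is not given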
Meaning of the calls: active = enhances vemurafenib effect; inactive = no enhancement seen
This is an unselected part of about 18,000 reagents. Over the whole deposit, 790 (4.4%) are marked active. 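Calls rest on a combination of fold-change classes in drug and vehicle arms, not all shown here.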 A number with no mark means an inactive call. No sequences are given here.

Gene,cell gain with vemurafenib,lactate per cell with vemurafenib
MFSD1 (major facilitator superfamily domain containing 1),0.9,1.14
SHTN1 (shootin 1),0.32,1.6
REST (RE1 silencing transcription factor),0.69,1.46
GPR156 (G protein-coupled receptor 156),0.33,1.75
LIMS1 (LIM zinc finger domain containing 1),0.51,1.05
SAT1 (spermidine/spermine N1-acetyltransferase 1),0.89,0.77
SAGE1 (sarcoma antigen 1),0.36,0.64
GZMA (granzyme A),0.68,0.96
PRADC1 (protease associated domain containing 1),0.66,1.56
SLC35F6,0.84,0.42
SLC36A2,0.96,0.5
F13B (coagulation factor XIII B chain),0.91,0.74
CENPL (centromere protein L),0.57,0.98
COA3 (cytochrome c oxidase assembly factor 3),0.4,1.9
CCER1 (coiled-coil glutamate rich protein 1),0.86,1
DPYSL5 (dihydropyrimidinase like 5),0.78,0.89
"NT5M (5',3'-nucleotidase, mitochondrial)",0.26,2.32
ZNF784 (zinc finger protein 784),0.69,0.64
TAS2R46 (taste 2 receptor member 46),0.53,1.08
"PKD2 (polycystin 2, transient receptor potential cation channel)",0.39,0.97
PANK1 (pantothenate kinase 1),0.72,1.08
MATN3 (matrilin 3),0.83,0.87
RILPL1 (Rab interacting lysosomal protein like 1),0.69,0.8
PML (PML nuclear body scaffold),0.35,1.27
STOX2 (storkhead box 2),0.43,1.77
GPRASP1 (G protein-coupled receptor associated sorting protein 1),0.34,0.69
OPN3 (opsin 3),0.58,1.16
"ABHD10 (abhydrolase domain containing 10, depalmitoylase)",0.42,1.52
CHGA (chromogranin A),0.68,1.04
CLPB (ClpB family mitochondrial disaggregase),0.72,1.01
"ALG10B (ALG10 alpha-1,2-glucosyltransferase B)",0.76,0.56
WDR90 (WD repeat domain 90),0.92,0.88
SHISA6 (shisa family member 6),0.45,1.36
"ALKBH1 (alkB homolog 1, histone H2A dioxygenase)",0.86,0.68
"PCDHGB3 (protocadherin gamma subfamily B, 3)",0.14,2.36
DEFB104B (defensin beta 104B),0.44,1.1

Continued, starting with the last 3 of the part before.
Gene,cell gain with vemurafenib,lactate per cell with vemurafenib
"ALKBH1 (alkB homolog 1, histone H2A dioxygenase)",0.86,0.68
"PCDHGB3 (protocadherin gamma subfamily B, 3)",0.14,2.36
DEFB104B (defensin beta 104B),0.44,1.1
CPA2 (carboxypeptidase A2),0.22,1.4
C5orf34 (chromosome 5 open reading frame 34),0.53,1.05
S1PR2 (sphingosine-1-phosphate receptor 2),0.38,1.12
CCDC28A (coiled-coil domain containing 28A),0.59,0.61
C7 (complement C7),-0.1,2.67
MIGA1 (mitoguardin 1),-0.06,-0.12
BCL10 (BCL10 immune signaling adaptor),0.64,1.25
A1CF (APOBEC1 complementation factor),1.18,1.08
PCDHB1 (protocadherin beta 1),0.68,0.96
ANAPC7 (anaphase promoting complex subunit 7),0.46,0.88
HTR6 (5-hydroxytryptamine receptor 6),0.53,1.67
SPRR2A (small proline rich protein 2A),1.04,0.22
"TMEM183BP (transmembrane protein 183B, pseudogene)",0.67,0.3
CCDC136 (coiled-coil domain containing 136),0.74,0.56
TRPA1,1.1,0.6
KDM3A (lysine demethylase 3A),0.81 (active),0.46
C11orf40 (chromosome 11 putative open reading frame 40),0.34,0.29
SLC10A4,0.9,0.44
SPINK8 (serine peptidase inhibitor Kazal type 8 (putative)),0.61,0.63
ATG5 (autophagy related 5),0.35,1.3
MYF6 (myogenic factor 6),0.31,1.08
MYOD1 (myogenic differentiation 1),1.44,0.66
"GBE1 (1,4-alpha-glucan branching enzyme 1)",0.52,0.96
DDX17 (DEAD-box helicase 17),0.8,1.06
PRR3 (proline rich 3),0.84,0.49
TUBB7P (tubulin beta 7 pseudogene),0.09,1.84
PCDHA9 (protocadherin alpha 9),0.53,0.71
TEDC1 (tubulin epsilon and delta complex 1),0.21,0.84
IRX2-DT (IRX2 divergent transcript),0.6,0.84
KANSL1 (KAT8 regulatory NSL complex subunit 1),0.04,2.25
NELFB (negative elongation factor complex member B),0.6,0.6
TMEM216 (transmembrane protein 216),0.02,1.29
DYNC1I1 (dynein cytoplasmic 1 intermediate chain 1),0.92,0.93
SERTAD3 (SERTA domain containing 3),0.38,1.1
CST6 (cystatin E/M),0.54,0.81
"RBBP6 (RB binding protein 6, ubiquitin ligase)",0.74,1.06
PI4KA (phosphatidylinositol 4-kinase alpha),0.56,1.29
DCAF15 (DDB1 and CUL4 associated factor 15),0.85,1.43
MIEF2 (mitochondrial elongation factor 2),0.21,1.69
KIF3C (kinesin family member 3C),0.35,1.08
SEPTIN2 (septin 2),0.5,1.2
MED9 (mediator complex subunit 9),0.26,1.22
MRPS5 (mitochondrial ribosomal protein S5),0.48,0.94
GPD2 (glycerol-3-phosphate dehydrogenase 2),0.47,0.22
SH2D4B (SH2 domain containing 4B),0.9,0.96
TTC23L (tetratricopeptide repeat domain 23 like),1.01,0.39
INTS5 (integrator complex subunit 5),0.16,1.46
ADCK5 (aarF domain containing kinase 5),0.5,1.69
KREMEN1 (kringle containing transmembrane protein 1),0.53,1.85
"PCYT1A (phosphate cytidylyltransferase 1A, choline)",0.41,0.77
HELZ (helicase with zinc finger),0.25,0.66
ALCAM (activated leukocyte cell adhesion molecule),0.46,1.09
ARHGAP5 (Rho GTPase activating protein 5),0.44,1.74
QRSL1 (glutaminyl-tRNA amidotransferase subunit QRSL1),1.07,0.56
SFN (stratifin),0.89,0.88
AGBL4 (AGBL carboxypeptidase 4),0.8,0.54
MAPDA (N6-Methyl-AMP deaminase),1.02,0.81
SNX14 (sorting nexin 14),0.56,0.94
PLEK2 (pleckstrin 2),0.65,0.26
LRRFIP1 (LRR binding FLII interacting protein 1),0.47,0.72
DUS1L (dihydrouridine synthase 1 like),0.15,1.54
FAM221B (family with sequence similarity 221 member B),0.16,1.76
SLC26A2,1.19,0.8
USP11 (ubiquitin specific peptidase 11),0.46,0.97
SIGLEC7 (sialic acid binding Ig like lectin 7),0.47,0.31
COL17A1 (collagen type XVII alpha 1 chain),0.8,0.74
COL21A1 (collagen type XXI alpha 1 chain),0.73,1.46
SNAP29 (synaptosome associated protein 29),0.31,1.5
H3-5 (H3.5 histone),1.05,0.7
LOC652436 (retired record),0.75,0.79
PRKACA (protein kinase cAMP-activated catalytic subunit alpha),0.98,0.68
